Measurements as given in patent US20150030603A1.
These are yes or no findings as the source states them, for the method shown. Some entries that bind do so weakly or less than the wild type.

Protein sequences, listed by entry. Tags and fused reporters are not part of them. Lines headed by an entry give the natural chain unless they say otherwise; changes in a name come on top. Residues count along the entry.
UniProt Q02763, residues 23-745: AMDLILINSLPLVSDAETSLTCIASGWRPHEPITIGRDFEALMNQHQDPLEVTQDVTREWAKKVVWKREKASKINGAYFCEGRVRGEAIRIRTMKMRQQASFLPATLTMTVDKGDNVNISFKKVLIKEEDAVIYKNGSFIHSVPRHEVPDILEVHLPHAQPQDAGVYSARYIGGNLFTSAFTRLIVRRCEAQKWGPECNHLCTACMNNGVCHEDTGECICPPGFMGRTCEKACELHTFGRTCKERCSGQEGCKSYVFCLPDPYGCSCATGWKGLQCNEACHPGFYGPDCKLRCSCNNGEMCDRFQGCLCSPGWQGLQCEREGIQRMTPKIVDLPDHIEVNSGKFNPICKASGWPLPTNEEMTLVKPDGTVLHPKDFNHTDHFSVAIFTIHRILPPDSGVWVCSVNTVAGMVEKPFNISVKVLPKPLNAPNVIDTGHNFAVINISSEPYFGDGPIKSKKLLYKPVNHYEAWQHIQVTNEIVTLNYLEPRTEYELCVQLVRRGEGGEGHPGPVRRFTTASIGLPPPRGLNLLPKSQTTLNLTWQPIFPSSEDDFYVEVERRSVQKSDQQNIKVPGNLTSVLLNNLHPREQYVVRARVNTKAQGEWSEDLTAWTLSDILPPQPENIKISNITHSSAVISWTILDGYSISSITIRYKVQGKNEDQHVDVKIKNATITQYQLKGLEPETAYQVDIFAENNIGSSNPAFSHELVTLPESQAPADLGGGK
UniProt O15123: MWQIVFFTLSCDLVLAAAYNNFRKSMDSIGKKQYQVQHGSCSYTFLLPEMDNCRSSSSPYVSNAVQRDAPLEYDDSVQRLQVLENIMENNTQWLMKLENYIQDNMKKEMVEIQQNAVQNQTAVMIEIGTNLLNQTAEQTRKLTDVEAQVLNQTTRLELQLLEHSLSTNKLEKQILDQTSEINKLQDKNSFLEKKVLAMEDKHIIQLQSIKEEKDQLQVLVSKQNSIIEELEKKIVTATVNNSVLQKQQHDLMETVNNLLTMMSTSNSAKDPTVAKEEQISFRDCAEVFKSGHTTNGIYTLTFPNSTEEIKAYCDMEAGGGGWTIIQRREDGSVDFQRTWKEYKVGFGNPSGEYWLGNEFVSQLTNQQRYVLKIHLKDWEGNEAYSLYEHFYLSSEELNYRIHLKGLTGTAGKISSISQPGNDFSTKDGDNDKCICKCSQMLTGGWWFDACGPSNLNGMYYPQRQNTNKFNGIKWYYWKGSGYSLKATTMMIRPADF

Target: hTie2-Fc (R&D Systems) (human) (UniProt Q02763)
Test: sandwich (complex) ELISA: coated Tie2-Fc, FLAG-Ang2 0.25 µg/ml captured and detected through 10D6 2 µg/ml and anti-mouse IgG-HRP (OD450)

Substance: FLAG-tagged hAng-2 (from UniProt O15123 19-496) (ligand)
- binding: binds
